According to PMC6624252:
Results are given in words; binding and its absence hold for the method and conditions named. A result given as binding can be weak or reduced; the word gives no strength. For some assays here: Tags and fused reporters may be left off the sequences shown.

Assays:
[1] = molecular target: CtRea1-MIDAS∆loop (Chaetomium thermophilum); test: crystal structure; complexes reconstituted from purified components (with 5 mM MgCl2), sitting-drop vapor diffusion at 18 °C; Mg2+ coordinated by MIDAS and UBL; both purified
[2] = molecular target: ScRea1-MIDAS ∆loop (GAL4-BD fusion) (S. cerevisiae); test: two-hybrid; Rea1-MIDAS constructs fused to GAL4-BD (bait), Rsa4 fused to GAL4-AD (prey); strain PJ69-4A; growth on SDC-Leu-Trp-His (HIS3 reporter), 3 days at 30 °C
[3] = molecular target: ScRea1-MIDAS ∆loop with the PY-NLS of L4 (two-hybrid construct) (S. cerevisiae); test: as above
[4] = molecular target: ScRea1-MIDAS ∆loop with the PY-NLS of Hrp1 (two-hybrid construct) (S. cerevisiae); test: as above
[5] = molecular target: ScRea1-MIDAS ∆loop with the PY-NLS of Syo1 (two-hybrid construct) (S. cerevisiae); test: as above

| binding [1] | binding [2] | binding [3] | binding [4] | binding [5] | Binder |
| --- | --- | --- | --- | --- | --- |
| binds |  |  |  |  | CtYtm1-Ubl_8–98 (domain or fragment, UniProt G0SFB5 8-98) APAPVAQVKVIFTTTEPDLELPESKRQLLVPADIRRYGLSRILNSESMLDTGSIPFDFLINGSFLRSSLEDYLTSNGLSLETTLTLQYVRS |
|  | binds | binds | binds | binds | full-length Rsa4 from S. cerevisiae (GAL4-AD fusion) (protein, UniProt P25382 1-515) MSTLIPPPSKKQKKEAQLPREVAIIPKDLPNVSIKFQALDTGDNVGGALRVPGAISEKQLEELLNQLNGTSDDPVPYTFSCTIQGKKASDPVKTIDITDNLYSSLIKPGYNSTEDQITLLYTPRAVFKVKPVTRSSSAIAGHGSTILCSAFAPHTSSRMVTGAGDNTARIWDCDTQTPMHTLKGHYNWVLCVSWSPDGEVIATGSMDNTIRLWDPKSGQCLGDALRGHSKWITSLSWEPIHLVKPGSKPRLASSSKDGTIKIWDTVSRVCQYTMSGHTNSVSCVKWGGQGLLYSGSHDRTVRVWDINSQGRCINILKSHAHWVNHLSLSTDYALRIGAFDHTGKKPSTPEEAQKKALENYEKICKKNGNSEEMMVTASDDYTMFLWNPLKSTKPIARMTGHQKLVNHVAFSPDGRYIVSASFDNSIKLWDGRDGKFISTFRGHVASVYQVAWSSDCRLLVSCSKDTTLKVWDVRTRKLSVDLPGHKDEVYTVDWSVDGKRVCSGGKDKMVRLWTH |
